Assay: Elimination of COD and TOC by CPO-catalyzed oxidative degradation
Settings: CPO-catalyzed degradation alone

Row | Structure (SMILES) | COD removal [%] | TOC removal [%]
1 | O=C([O-])Cc1ccccc1Nc1c(Cl)cccc1Cl.[Na+] [diclofenac, 2-[(2,6-dichlorophenyl)amino]benzeneacetic acid; sodium salt] | 4.9 | 25
2 | COc1ccc2cc(C(C)C(=O)O)ccc2c1 (stereo not shown) [naproxen, 2-(6-methoxynaphthalen-2-yl)propionic acid] | 9.1 | 7.6

Reference: US10301203B2, “Chloroperoxidase-catalyzed degradation of pharmaceutical pollutants in wastewater” (THE FLORIDA INTERNATIONAL UNIVERSITY BOARD OF TRUSTEES, priority 2017, dated 2019)
